Results published in PMC5660092.
No constants are given. Whether binding was seen depends on the method and setting. In cells and extracts the contact can be indirect. Some binding calls cover weakened binding; strength is not graded here. One block for each molecule: values may come before it.

The chains behind the UniProt entries cited, without tags or fusion partners. Where a name states a change or a piece, a line headed by the entry shows the natural chain unless it says otherwise.
UniProt Q14457: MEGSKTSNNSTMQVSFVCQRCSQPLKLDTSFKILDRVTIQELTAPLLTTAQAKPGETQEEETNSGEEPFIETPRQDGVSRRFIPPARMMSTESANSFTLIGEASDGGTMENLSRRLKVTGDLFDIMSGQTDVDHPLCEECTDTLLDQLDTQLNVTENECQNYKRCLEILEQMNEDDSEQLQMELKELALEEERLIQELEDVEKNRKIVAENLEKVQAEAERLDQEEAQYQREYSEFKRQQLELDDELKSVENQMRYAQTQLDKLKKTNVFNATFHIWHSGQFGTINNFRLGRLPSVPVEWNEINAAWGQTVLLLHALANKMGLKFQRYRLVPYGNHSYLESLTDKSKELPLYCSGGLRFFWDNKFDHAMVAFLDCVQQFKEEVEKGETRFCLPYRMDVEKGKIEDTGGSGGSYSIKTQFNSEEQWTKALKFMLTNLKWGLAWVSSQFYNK
UniProt P10415: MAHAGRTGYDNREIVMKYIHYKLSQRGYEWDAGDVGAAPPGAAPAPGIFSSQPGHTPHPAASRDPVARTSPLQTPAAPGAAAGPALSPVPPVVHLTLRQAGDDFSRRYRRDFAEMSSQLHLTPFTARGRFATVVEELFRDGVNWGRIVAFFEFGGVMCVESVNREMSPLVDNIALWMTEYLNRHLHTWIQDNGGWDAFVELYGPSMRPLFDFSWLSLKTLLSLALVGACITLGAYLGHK

Key:
[1] = target: Flag-Beclin 1-WT (human) (UniProt Q14457); test: co-IP; Flag-Beclin 1-WT and its mutants overexpressed in HEK293T cells; ionomycin or KN-93 treatment (Supplementary Fig. 2a, b)
[2] = target: Flag-Beclin 1-S90A (human) (UniProt Q14457); test: as above
[3] = target: Beclin 1 (endogenous) (human (endogenous in HEK293T and SK-N-SH)) (UniProt Q14457); test: co-IP; endogenous proteins; SK-N-SH cells treated with 6 uM ionomycin or 100 nM EB1089, precipitated with anti-Beclin 1 or normal mouse IgG, western blot
[4] = target: p62 (endogenous) (human (endogenous in HEK293T)) (UniProt Q13501); test: co-IP; endogenous proteins; HEK293T cells treated with 6 uM ionomycin or 100 nM EB1089 for 24 h and 100 nM Baf A1 for 6 h, precipitated with anti-p62 or normal mouse IgG, western blot

Molecule: Bcl-2 (HEK293T lysate, Supplementary Fig. 2a, b) (from UniProt P10415 1-239)
binding [1]: binds | binding [2]: binds

Molecule: Bcl-2 (endogenous, SK-N-SH) (from UniProt P10415 1-239)
binding [3]: binds

Next, values leading:

binding [4]: binds
B1: Id-1 (endogenous) (protein, UniProt P41134 1-155)
chain: MKVASGSTATAAAGPSCALKAGKTASGAGEVVRCLSEQSVAISRCAGGAGARLPALLDEQQVNVLLYDMNGCYSRLKELVPTLPQNRKVSKVEILQHVIDYIRDLQLELNSESEVGTPGGRGLPVRAPLSTLNGEISALTAEAACVPADDRILCR

binding [4]: binds
B2: Id-2 (endogenous) (protein, UniProt Q02363 1-134)
chain: MKAFSPVRSVRKNSLSDHSLGISRSKTPVDDPMSLLYNMNDCYSKLKELVPSIPQNKKVSKMEILQHVIDYILDLQIALDSHPTIVSLHHQRPGQNQASRTPLTTLNTDISILSLQASEFPSELMSNDSKALCG
